From patent US8017585B2 (priority 2002, dated 2011) come the findings set out here.

Data set [1] in a line: general procedure: Fmoc solid-phase peptide synthesis; Fmoc-Rink amide resin; DIPCDI-HOBt. Conditions: whole synthesis.
Data set [2] in a line: general procedure: Fmoc solid-phase peptide synthesis; Fmoc-Rink amide resin (0.34 mmol/g); DIPCDI-HOBt. Conditions: whole synthesis, scale 1 mmol, 6 TFA salt.

Turning to “4F-benzoyl-Arg-Arg-Nal-Cys-Tyr-Cit-Lys-DLys-Pro-Tyr-Arg-Cit-Cys-Arg-NH2”, the isolated yield in data set [1] (scale 1 mmol, 6 TFA salt) came out at 19.4%. Besides, the isolated mass in data set [2] turned out to be 551.5 mg.
For “H-Arg-Arg-Nal-Cys-Tyr-Arg-Lys-DGlu-Pro-Tyr-Arg-Cit-Cys-Arg-OH”, in data set [1] (7 AcOH salt), the isolated yield is given as 21.3%.
